Measured values reported in patent CN114426582A.
Results are given in words; binding and its absence hold for the method and conditions named. Some binding calls cover weakened binding; strength is not graded here.

Chains of the proteins cited; added tags and fusions are not shown.
UniProt P09104: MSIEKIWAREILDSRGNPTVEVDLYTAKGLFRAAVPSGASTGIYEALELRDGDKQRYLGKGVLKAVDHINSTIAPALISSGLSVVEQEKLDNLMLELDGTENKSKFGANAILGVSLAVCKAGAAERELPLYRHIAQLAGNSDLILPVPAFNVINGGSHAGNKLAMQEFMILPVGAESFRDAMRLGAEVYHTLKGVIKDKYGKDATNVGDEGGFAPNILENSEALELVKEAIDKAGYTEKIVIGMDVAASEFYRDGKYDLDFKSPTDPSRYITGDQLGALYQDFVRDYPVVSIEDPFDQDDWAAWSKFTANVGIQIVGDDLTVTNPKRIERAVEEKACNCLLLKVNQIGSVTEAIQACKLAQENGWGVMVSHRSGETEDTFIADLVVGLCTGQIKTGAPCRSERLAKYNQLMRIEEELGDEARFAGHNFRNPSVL

Experiments:
[1] = biological target: 纯化的ENO2蛋白 (coating protein of the Example 7 ELISA) (human) (UniProt P09104); experiment: ELISA, ENO2-coated plate (100 ng/well), 293T supernatant, HRP anti-IgG / anti-kappa secondary
[2] = biological target: 纯化的ENO2蛋白 (coating protein of the Example 7 ELISA) (human) (UniProt P09104); experiment: ELISA result of Example 7 step 2, told again with the immunofluorescence expression result

重组4C11单克隆抗体 (4C11mG1+4C11mk co-transfected in 293T cells) (from UniProt P01868 1-324; P01837 1-107) (antibody)
binding [1]: binds | binding [2]: binds
